The list shows a part of the results.

The chains behind the UniProt entries cited, without tags or fusion partners.
UniProt Q0JBA9, entry or part of it: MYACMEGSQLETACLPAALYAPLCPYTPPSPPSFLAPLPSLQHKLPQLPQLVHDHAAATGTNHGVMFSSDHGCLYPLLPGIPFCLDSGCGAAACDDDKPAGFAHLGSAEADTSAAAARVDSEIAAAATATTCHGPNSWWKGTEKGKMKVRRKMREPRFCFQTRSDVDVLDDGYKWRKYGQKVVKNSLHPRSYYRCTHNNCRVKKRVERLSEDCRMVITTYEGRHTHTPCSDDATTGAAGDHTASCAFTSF

The target in this assay is OsWRKY34 (Oryza sativa, UniProt Q0JBA9 1-250). In words: protein-binding microarray (RPBM); PBS, 2% BSA, 51.3 ng/ul salmon testes DNA, 50 uM zinc acetate, 200 nM TF, 25 C, 1 h; high values mean tight binding. Conditions: protein: recombinant; tags: N-terminal polyhistidine and DsRed monomer fusion (pET32a); label: CyDye5-dUTP incorporated in the synthesized complementary strand; 3' TTTTT single-stranded linker to array surface; dsDNA, one strand shown. A digest of the protocol: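 Polyhistidine-tagged DsRed fusions of transcription factors, joined at the N-terminus, were expressed in E. coli BL21-CodonPlus and isolated on Ni–NTA. They were incubated at 200 nM for 1 h at 25 °C on a custom Agilent array, double-stranded and BSA-blocked, in PBS with 2% BSA, salmon testes DNA and 50 µM zinc acetate. The binding signal is per-feature fluorescence intensity (arbitrary units) read on an Axon 4000B scanner after washing.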
Regarding “GCGTGTGTGTCTGAGAGAGAGATCAGAGATGAGGGCGGGCCGGAGTCACCTAGTGCAG”, the binding signal was 8680 fluorescence intensity (a.u.). The result for “CGCCGCGTGGTTCTTCGTTTCGTTTGTCTCGCCATCTCTTCGGAGTCACCTAGTGCAG” reads 16200 fluorescence intensity (a.u.); that for “GACATCAGGGTTTATCTTTATTTGGGATGGAGGGTGTAGGCGGAGTCACCTAGTGCAG”, 9980 fluorescence intensity (a.u.). In the case of “GTGTCTGCCATCCTGCTATGTTGTGTGCGTGAGAAAATAACGGAGTCACCTAGTGCAG”, the binding signal is 9000 fluorescence intensity (a.u.). With “TAGTGGGGAGGCGGTGGTGCTGCGGGGAGGGAGGGAGCACCGGAGTCACCTAGTGCAG”, the binding signal is 12800 fluorescence intensity (a.u.). The value for “CTCCTCCATTGCCAGTTGCTACTCATCCTCATCCTCTCCACGGAGTCACCTAGTGCAG” was 8290 fluorescence intensity (a.u.); that for “AAGTGTGGTCCTACTGTGCAGCTCCATGTTGTTGAAGAATCGGAGTCACCTAGTGCAG” was 10200 fluorescence intensity (a.u.). Consider “GGAGTTGACCAACATGGCTGCCTTTTAGCTGAACTCTTTTCGGAGTCACCTAGTGCAG”, for which the binding signal was 9430 fluorescence intensity (a.u.). In the case of “TTGAATATGTAATCAGTAATGTGCTTGGTTTAGCGGGGAACGGAGTCACCTAGTGCAG”, the binding signal is 10800 fluorescence intensity (a.u.).

In the case of “TGTATAGCTAGTAGTAGGATCTTGGTTTATTTTGATTTGCCGGAGTCACCTAGTGCAG”, the binding signal was 9800 fluorescence intensity (a.u.). The result for “AGCTCTCTCTGCTACTCCTCCTAGCTGCATGCTAAGCTAACGGAGTCACCTAGTGCAG” reads 8320 fluorescence intensity (a.u.); that for “TCCCTAACAAAAATTTTGCACCCTATTGCATTGAGCGTTTCGGAGTCACCTAGTGCAG”, 8410 fluorescence intensity (a.u.). The result for “AACATAAACACACATCATTTCCTGTCCCTTGCACGCTACGCGGAGTCACCTAGTGCAG” reads 10000 fluorescence intensity (a.u.); that for “TTTTTTTGTTTTCAATTTGTGTGTGTGTGTGTGTTTCAAGCGGAGTCACCTAGTGCAG”, 9320 fluorescence intensity (a.u.). For “AGTTGGCAATAGATCTGCGGCTCACTTGTCTTGTTTCTCTCGGAGTCACCTAGTGCAG”, the binding signal is 11400 fluorescence intensity (a.u.). Regarding “ACACGGAAACGGTTACCTCTGTTCGCCTCGTCCTTTTCCTCGGAGTCACCTAGTGCAG”, the binding signal was 8480 fluorescence intensity (a.u.). With “CCAAATTCTTCTACGATTCTTATGTTCTTCAGGATACTTGCGGAGTCACCTAGTGCAG”, the binding signal was 8540 fluorescence intensity (a.u.). On to “CGCTGCCCGTTGCCCGCAAGCGTCACACACTGCTTACACCCGGAGTCACCTAGTGCAG”, for which the binding signal was 10900 fluorescence intensity (a.u.). For the sequence “TCTCCTCCCTCGTTTCTCCTGACACGCTCTCATCCTACAACGGAGTCACCTAGTGCAG”, the binding signal is 8660 fluorescence intensity (a.u.).

As for “GGCTTGGCCATCGGTTGGCCAGTGTGTTGGAGCTCTTTTTCGGAGTCACCTAGTGCAG”, the binding signal was 8640 fluorescence intensity (a.u.).

Consider “TCTCAGCCGTGGTGAGCCTCTTTCTGATTCATCTCTCTCTCGGAGTCACCTAGTGCAG”, for which the binding signal is 9830 fluorescence intensity (a.u.). As to “AATTTCCCTTTAGTATAACCTGCTACAATTAAAATTTTATCGGAGTCACCTAGTGCAG”, the binding signal is 8550 fluorescence intensity (a.u.). “GTTTTTTCAGATATTTTATTTTCCTCTTTTTTTTGTTGTCCGGAGTCACCTAGTGCAG”: the binding signal is 9310 fluorescence intensity (a.u.).

Turning to “GCGGCCAGTACTCATCACTCTATATACGAGCCTTTGCTACCGGAGTCACCTAGTGCAG”, the binding signal is 8340 fluorescence intensity (a.u.). The value for “GGTGTCCAGCAACTAATTACCACATTTTTACAGTGTCCACCGGAGTCACCTAGTGCAG” was 9010 fluorescence intensity (a.u.); that for “CGACTCCACCTATCTCGGCAGCATCACATTCGGAGGGCATCGGAGTCACCTAGTGCAG” was 10900 fluorescence intensity (a.u.). For “GGGAGCGGCGGAGGAGGAGGGCGCGGCGGCGGTGGGGTGGCGGAGTCACCTAGTGCAG”, the binding signal is 18100 fluorescence intensity (a.u.). As for “CCTCTTCCCCTGCTTTCTTTGTCTTTCTCAAACAGGTTACCGGAGTCACCTAGTGCAG”, the binding signal was 8560 fluorescence intensity (a.u.). The value for “GTTGTTAATTGTCTCGTGCATGTGATCCATGTATGCGCCACGGAGTCACCTAGTGCAG” was 9000 fluorescence intensity (a.u.). As to “CTCCGGGGAATATCTATGGGTCTTGTGGGTGTAGGGAGGACGGAGTCACCTAGTGCAG”, the binding signal is 8770 fluorescence intensity (a.u.).

Consider “AGAGCGACCTCCTCCATCCATCCCGTCTGCCGCCGGCGCCCGGAGTCACCTAGTGCAG”, for which the binding signal is 10100 fluorescence intensity (a.u.). Regarding “ATTTCTATTTTATGAACGATGGGCTTGGGTTTGTGCTGGTCGGAGTCACCTAGTGCAG”, the binding signal was 11300 fluorescence intensity (a.u.). “TCCAGACTGATGTCATTTTCTGTAGTAGTGTAAGCCTTCACGGAGTCACCTAGTGCAG”: the binding signal is 8490 fluorescence intensity (a.u.). The result for “AGTAGGCCCAACCCAGTTAGACGAATTCCTCAACCTTATCCGGAGTCACCTAGTGCAG” reads 9080 fluorescence intensity (a.u.); that for “GTTCGTCGTCGTCTTCGCCTTCGTCTTCTCCATCCACCACCGGAGTCACCTAGTGCAG”, 16100 fluorescence intensity (a.u.). For the sequence “ACGGTCCACCACCACCAGATATGCCGCCGCCCACCGCCCTCGGAGTCACCTAGTGCAG”, the binding signal is 10500 fluorescence intensity (a.u.). The value for “ACATTTTCCACCCTAACCTACAAAAATTAGTAGTTTTTTACGGAGTCACCTAGTGCAG” was 8090 fluorescence intensity (a.u.); that for “GGTGTACTTTTTCCCATACCTATACATCCCGCGTTTTAGTCGGAGTCACCTAGTGCAG” was 12300 fluorescence intensity (a.u.); that for “TTCTGCTACGACTTCATACGAGTCTACGAACCAGTCGCCGCGGAGTCACCTAGTGCAG” was 8730 fluorescence intensity (a.u.).

For the sequence “GTTTCTTTCTTGTCGGCTACGTTTTAAATGACCAGTTAGTCGGAGTCACCTAGTGCAG”, the binding signal is 8870 fluorescence intensity (a.u.). “ATTATATTTTGCTCCTGTAGGTTATATTATATATGTTGTCCGGAGTCACCTAGTGCAG”: the binding signal was 9960 fluorescence intensity (a.u.). For “CCGCCGCCGCCGCCGCAGCCACACCACCCGCGCCGCCCGTCGGAGTCACCTAGTGCAG”, the binding signal is 8600 fluorescence intensity (a.u.).
